According to PubChem BioAssay AID330 (DTP/NCI, 2004):
The list shows only some results of the screen, not a fair sample: it is rich in T/C values a quarter to a half above the control, in often repeated tests (any T/C) and in doses without a T/C. Further doses and runs are listed elsewhere. T/C is the treated group as % of the vehicle group. Some entries give survivors of the animals treated and no T/C: the source files T/C as zero there, which appears to mark a toxic dose or a test without result, not a measured value. Some doses without a T/C left all or most animals alive at the check, yet need not have been tolerated: the source hardly ever lists a survival T/C far under the control, and the zero likely stands for such cases as well. Survivors were counted at the toxicity check, usually on the fifth day, unless a day is given; later deaths do not show. Schedule codes are those of the source, read here as Q, the interval in days (D) or hours (H), X, the number of doses. Brackets with × stand for listed records that agree. Where survival is the endpoint, this PubChem deposit counts one and a half times the control or more as active, and values a quarter to a half above the control carry no call in these data; other NCI protocols may use other cut-offs. Some entries were tested several times; the values are given in rising order. Some T/C values carry the count of animals alive at the toxicity check (mostly the fifth day); without a count, all were alive then.

System: P388 leukemia ip, CD2F1 mice, survival T/C
Assay: NCI In Vivo Anticancer Drug Screen. Data for tumor model P388 Leukemia (intraperitoneal) in CD2F1 (CDF1) mice
Settings: T/C endpoint: median survival time, higher T/C = longer survival
[1] = dose: 200.0 mg/kg/injection, schedule: Q01DX005 (ip), vehicle: Klucel (hydroxypropylcellulose) (HPC)
[2] = dose: 50.0 mg/kg/injection, schedule: Q01DX009 (ip), vehicle: saline
[3] = dose: 240.0 mg/kg/injection, schedule: Q01DX005 (ip), vehicle: saline with Tween-80

`COc1cccc2c1C(=O)c1c(O)c3c(c(O)c1C2=O)C[C@@](O)(/C(C)=N/NC(=O)c1cccc([N+](=O)[O-])c1)C[C@@H]3OC1CC(N)C(O)C(C)O1` (some centres undefined) was tested, and the T/C (dose: 0.12 mg/kg/injection, schedule: Q01DX009 (ip), vehicle: water) was 125 % of control, the T/C (dose: 0.25 mg/kg/injection, schedule: Q01DX009 (ip), vehicle: water) was 130 % of control and the T/C (dose: 0.5 mg/kg/injection, schedule: Q01DX009 (ip), vehicle: water) was 130 % of control. The T/C (dose: 1.0 mg/kg/injection, schedule: Q01DX009 (ip), vehicle: water) was 146 % of control, the survivor count (dose: 16.0 mg/kg/injection, schedule: Q01DX009 (ip), vehicle: water) was 6 of 6 (2×) and the T/C (dose: 20.0 mg/kg/injection, schedule: Q01DX001 (ip), vehicle: water) was 126 % of control. For the same compound, the T/C (dose: 25.0 mg/kg/injection, schedule: Q04DX003 (ip), vehicle: water) was 138 % of control, the T/C (dose: 32.0 mg/kg/injection, schedule: Q04DX003 (ip), vehicle: saline) was 131 and 137 % of control and the survivor count (dose: 40.0 mg/kg/injection, schedule: Q01DX001 (ip), vehicle: water) was 6 of 6. For the same compound, the T/C (dose: 50.0 mg/kg/injection, schedule: Q04DX003 (ip), vehicle: water, evaluated on day 30) was 140 % of control, the T/C (dose: 50.0 mg/kg/injection, schedule: Q04DX003 (ip), vehicle: water, evaluated on day 45) was 126 % of control and the T/C (dose: 64.0 mg/kg/injection, schedule: Q04DX003 (ip), vehicle: saline) was 134 and 135 % of control. The survivor count (dose: 80.0 mg/kg/injection, schedule: Q01DX001 (ip), vehicle: water) was 5 of 6, the T/C (dose: 128.0 mg/kg/injection, schedule: Q04DX003 (ip), vehicle: saline) was 126 % of control and the survivor count (dose: 160.0 mg/kg/injection, schedule: Q01DX001 (ip), vehicle: water) was 0 of 6.

In the case of `CCCCCCCCCNCC(O)c1cc2c(c3ccccc13)CCCC2` (centres undefined), the survivor count (dose: 50.0 mg/kg/injection, schedule: Q01DX005 (ip), vehicle: Klucel (hydroxypropylcellulose) (HPC)) is reported as 3 of 5, the survivor count (dose: 100.0 mg/kg/injection, schedule: Q01DX005 (ip), vehicle: Klucel (hydroxypropylcellulose) (HPC)) is reported as 0 of 5 and the survivor count [1] is reported as 0 of 5.

With `C[CH2][Sn](=[O])[CH2]C` the T/C (dose: 6.25 mg/kg/injection, schedule: Q01DX009 (ip), vehicle: saline) was 127 % of control [4 of 6 alive], the T/C (dose: 12.5 mg/kg/injection, schedule: Q01DX009 (ip), vehicle: saline) was 137 % of control and the T/C [2] was 125 % of control [5 of 6 alive]. For the same compound, the survivor count [2] was 0 of 6, the survivor count (dose: 100.0 mg/kg/injection, schedule: Q01DX009 (ip), vehicle: saline) was 4 of 6 and the survivor count (dose: 200.0 mg/kg/injection, schedule: Q01DX009 (ip), vehicle: saline) was 1 of 6.

`COc1ccc(C(=O)Nc2c(Cl)cccc2Cl)cc1OC` was tested, and the survivor count [3] was 6 of 6.

For `Cc1nc(Nc2ccccc2)c2c(C)c[nH]c2n1`, the survivor count [1] was 0 of 6.

For `COC(=O)c1ccc(/C=C(\c2ccc([N+](=O)[O-])o2)S(=O)(=O)c2ccc(NC(C)=O)cc2)o1`, the survivor count (dose: 200.0 mg/kg/injection, schedule: Q01DX009 (ip), vehicle: suspension in saline) was 6 of 6.

In the case of `CC1(C)C(=O)C=CC2(C)C1CC(O)C1(C)C2CCC2(C)C(c3ccoc3)OC(=O)C3OC321` (centres undefined), the survivor count (dose: 24.0 mg/kg/injection, schedule: Q01DX009 (ip), vehicle: Klucel (hydroxypropylcellulose) (HPC)) is reported as 6 of 6.

For `Cc1cc2nc(C(C)C(=O)c3ccc(Cl)cc3)c(=O)[nH]c2cc1C` (centres undefined), the survivor count (dose: 15.0 mg/kg/injection, schedule: Q01DX005 (ip), vehicle: saline with Tween-80) was 6 of 6, the survivor count (dose: 30.0 mg/kg/injection, schedule: Q01DX005 (ip), vehicle: saline with Tween-80) was 6 of 6 and the survivor count (dose: 60.0 mg/kg/injection, schedule: Q01DX005 (ip), vehicle: saline with Tween-80) was 6 of 6. For the same compound, the survivor count (dose: 120.0 mg/kg/injection, schedule: Q01DX005 (ip), vehicle: saline with Tween-80) was 6 of 6 and the survivor count [3] was 6 of 6.

`O=S(=O)(CI)OCCCl` was tested, and the survivor count [1] was 0 of 6.
